Where a chain is given by its changes, count along the chain named. In names and notes the source's numbering stands. These are yes or no findings as the source states them, for the method shown. Some results given as binding are weak or reduced against the parent protein; the word gives no strength. Tags and fused reporters may be left off the sequences shown.

Amino acid sequences for entries named in this document (tags omitted).
UniProt Q9UQE7: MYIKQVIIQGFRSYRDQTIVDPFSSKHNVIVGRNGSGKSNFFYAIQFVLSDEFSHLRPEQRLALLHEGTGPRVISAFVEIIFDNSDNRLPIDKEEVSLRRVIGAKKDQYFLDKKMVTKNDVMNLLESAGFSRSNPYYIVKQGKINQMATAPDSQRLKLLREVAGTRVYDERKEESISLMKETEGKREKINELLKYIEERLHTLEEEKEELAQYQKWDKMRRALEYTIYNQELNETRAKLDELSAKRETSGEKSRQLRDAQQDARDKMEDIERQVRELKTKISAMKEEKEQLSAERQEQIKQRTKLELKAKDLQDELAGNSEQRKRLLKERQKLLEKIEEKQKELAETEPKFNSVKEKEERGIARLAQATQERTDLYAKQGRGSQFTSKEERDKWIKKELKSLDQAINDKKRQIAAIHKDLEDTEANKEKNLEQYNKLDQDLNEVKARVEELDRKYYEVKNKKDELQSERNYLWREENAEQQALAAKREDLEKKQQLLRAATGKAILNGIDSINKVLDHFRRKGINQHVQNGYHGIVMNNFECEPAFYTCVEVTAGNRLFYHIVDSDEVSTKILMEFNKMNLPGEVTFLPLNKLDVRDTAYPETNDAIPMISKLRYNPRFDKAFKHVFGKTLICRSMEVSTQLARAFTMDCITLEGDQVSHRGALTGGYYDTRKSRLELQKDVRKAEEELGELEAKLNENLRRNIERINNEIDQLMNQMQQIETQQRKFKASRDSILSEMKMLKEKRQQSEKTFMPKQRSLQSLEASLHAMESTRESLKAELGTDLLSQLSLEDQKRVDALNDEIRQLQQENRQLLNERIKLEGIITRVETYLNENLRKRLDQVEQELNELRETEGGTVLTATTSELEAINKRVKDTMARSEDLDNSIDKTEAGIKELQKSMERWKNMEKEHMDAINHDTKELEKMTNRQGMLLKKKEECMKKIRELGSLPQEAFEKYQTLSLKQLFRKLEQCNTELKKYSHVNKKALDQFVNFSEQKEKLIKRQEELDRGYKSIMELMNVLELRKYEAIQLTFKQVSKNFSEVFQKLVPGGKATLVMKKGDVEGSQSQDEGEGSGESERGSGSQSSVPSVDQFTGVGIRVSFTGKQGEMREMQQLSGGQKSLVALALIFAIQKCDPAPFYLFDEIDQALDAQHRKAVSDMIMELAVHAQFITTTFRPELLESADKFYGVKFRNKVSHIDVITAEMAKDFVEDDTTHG

One assay addresses T1, 10xHis-SA1 (human) (UniProt Q8WVM7).
T1 sequence: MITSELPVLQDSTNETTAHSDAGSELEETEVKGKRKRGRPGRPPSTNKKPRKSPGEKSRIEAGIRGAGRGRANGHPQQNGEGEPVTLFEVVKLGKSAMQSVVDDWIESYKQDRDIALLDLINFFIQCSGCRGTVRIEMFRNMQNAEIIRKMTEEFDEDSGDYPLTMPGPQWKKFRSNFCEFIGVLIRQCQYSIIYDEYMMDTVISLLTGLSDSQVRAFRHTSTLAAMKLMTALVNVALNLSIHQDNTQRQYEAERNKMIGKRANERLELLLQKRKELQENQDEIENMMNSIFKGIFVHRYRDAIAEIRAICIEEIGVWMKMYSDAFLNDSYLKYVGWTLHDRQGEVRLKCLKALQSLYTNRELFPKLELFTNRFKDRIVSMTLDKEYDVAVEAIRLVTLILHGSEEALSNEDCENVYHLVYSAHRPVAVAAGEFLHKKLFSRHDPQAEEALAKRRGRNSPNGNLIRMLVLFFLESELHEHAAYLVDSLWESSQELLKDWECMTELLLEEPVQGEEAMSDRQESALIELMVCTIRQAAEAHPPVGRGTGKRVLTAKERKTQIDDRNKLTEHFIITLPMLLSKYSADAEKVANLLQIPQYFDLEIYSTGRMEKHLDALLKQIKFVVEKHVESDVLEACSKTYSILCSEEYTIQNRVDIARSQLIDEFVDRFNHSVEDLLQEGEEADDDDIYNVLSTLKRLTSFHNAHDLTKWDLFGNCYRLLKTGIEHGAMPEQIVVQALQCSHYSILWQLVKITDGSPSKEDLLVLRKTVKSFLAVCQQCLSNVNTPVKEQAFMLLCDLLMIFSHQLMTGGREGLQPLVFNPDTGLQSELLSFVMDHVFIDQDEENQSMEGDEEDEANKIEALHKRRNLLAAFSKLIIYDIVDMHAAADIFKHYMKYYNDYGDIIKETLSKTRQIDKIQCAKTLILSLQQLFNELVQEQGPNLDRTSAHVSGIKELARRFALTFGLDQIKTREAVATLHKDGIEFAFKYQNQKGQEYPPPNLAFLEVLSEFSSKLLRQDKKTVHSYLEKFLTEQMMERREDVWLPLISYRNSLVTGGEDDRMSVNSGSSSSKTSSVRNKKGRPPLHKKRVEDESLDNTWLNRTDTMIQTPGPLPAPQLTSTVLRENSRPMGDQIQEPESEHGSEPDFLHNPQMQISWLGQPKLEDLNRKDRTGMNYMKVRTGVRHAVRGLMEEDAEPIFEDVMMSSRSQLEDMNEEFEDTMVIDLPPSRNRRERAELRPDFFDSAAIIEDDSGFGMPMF
Nature of the assay: co-purification (affinity and ion exchange chromatography); human subunits coexpressed in High Five insect cells; clarified lysate on HisTrap (10xHis on SA1), wash with 500 mM NaCl and 20 mM imidazole, eluted with 150 mM imidazole; tandem anion and cation exchange, eluted with 1 M NaCl; purity confirmed by gel electrophoresis and mass spectrometry.

The target in assay [1] is T2, Smc1 with a triple-StrepII tag (S. cerevisiae) (UniProt P32908).
T2 sequence: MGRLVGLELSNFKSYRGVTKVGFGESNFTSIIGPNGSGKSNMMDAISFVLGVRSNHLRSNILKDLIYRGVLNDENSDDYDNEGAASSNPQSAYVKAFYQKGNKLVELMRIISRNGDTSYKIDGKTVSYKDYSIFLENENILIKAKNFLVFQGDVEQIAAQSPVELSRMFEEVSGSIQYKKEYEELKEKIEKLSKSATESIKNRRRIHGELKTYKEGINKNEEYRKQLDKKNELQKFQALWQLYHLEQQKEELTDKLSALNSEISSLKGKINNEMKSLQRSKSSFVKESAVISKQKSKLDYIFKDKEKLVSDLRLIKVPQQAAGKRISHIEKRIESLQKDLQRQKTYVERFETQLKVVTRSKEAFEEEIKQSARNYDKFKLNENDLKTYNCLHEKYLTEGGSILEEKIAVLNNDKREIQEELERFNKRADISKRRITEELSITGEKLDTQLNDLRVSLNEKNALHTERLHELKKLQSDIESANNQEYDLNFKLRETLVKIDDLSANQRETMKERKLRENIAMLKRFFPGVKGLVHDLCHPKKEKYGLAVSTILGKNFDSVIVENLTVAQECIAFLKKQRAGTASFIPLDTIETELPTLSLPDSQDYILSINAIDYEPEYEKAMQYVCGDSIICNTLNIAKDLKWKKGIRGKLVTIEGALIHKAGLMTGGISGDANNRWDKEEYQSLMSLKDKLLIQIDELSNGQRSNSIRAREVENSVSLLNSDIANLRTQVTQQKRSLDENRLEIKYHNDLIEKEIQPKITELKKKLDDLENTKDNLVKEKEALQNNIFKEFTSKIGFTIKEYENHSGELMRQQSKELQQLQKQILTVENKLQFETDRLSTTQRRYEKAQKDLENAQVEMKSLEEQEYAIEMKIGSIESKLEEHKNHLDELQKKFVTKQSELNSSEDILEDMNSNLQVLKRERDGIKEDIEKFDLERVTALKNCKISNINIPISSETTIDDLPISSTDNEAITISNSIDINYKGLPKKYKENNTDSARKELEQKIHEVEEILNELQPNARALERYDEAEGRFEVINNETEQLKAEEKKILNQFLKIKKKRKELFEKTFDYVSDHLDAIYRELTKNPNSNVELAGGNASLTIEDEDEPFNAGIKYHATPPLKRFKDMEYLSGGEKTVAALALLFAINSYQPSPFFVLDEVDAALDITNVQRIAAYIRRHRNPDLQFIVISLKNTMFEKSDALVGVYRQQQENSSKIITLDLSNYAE
Put plainly: co-purification (affinity, heparin and gel filtration chromatography); subunits co-overexpressed in S. cerevisiae; clarified lysate on StrepTrap-HP (3xStrepII on Smc1 or Scc2), buffer A 25 mM Hepes pH 7.5, 200 mM NaCl, eluted with 5 mM desthiobiotin; HiTrap Heparin HP gradient 150 mM to 1 M NaCl; Superose 6 Increase in 300 mM NaCl; analysed by SDS-PAGE with Coomassie, Western blot and mass spectrometry. A general note: Size exclusion chromatography separates by hydrodynamic size, large species first.

In the case of SMC3-FLAG (from UniProt Q9UQE7 1-1217), in the assay with 10xHis-SA1 (human), the binding result was “binds”.

B1: Smc3 (protein, UniProt P47037 1-1230)
chain: MYIKRVIIKGFKTYRNETIIDNFSPHQNVIIGSNGSGKSNFFAAIRFVLSDDYSNLKREERQGLIHQGSGGSVMSASVEIVFHDPDHSMILPSGVLSRGDDEVTIRRTVGLKKDDYQLNDRNVTKGDIVRMLETAGFSMNNPYNIVPQGKIVALTNAKDKERLQLLEDVVGAKSFEVKLKASLKKMEETEQKKIQINKEMGELNSKLSEMEQERKELEKYNELERNRKIYQFTLYDRELNEVINQMERLDGDYNNTVYSSEQYIQELDKREDMIDQVSKKLSSIEASLKIKNATDLQQAKLRESEISQKLTNVNVKIKDVQQQIESNEEQRNLDSATLKEIKSIIEQRKQKLSKILPRYQELTKEEAMYKLQLASLQQKQRDLILKKGEYARFKSKDERDTWIHSEIEELKSSIQNLNELESQLQMDRTSLRKQYSAIDEEIEELIDSINGPDTKGQLEDFDSELIHLKQKLSESLDTRKELWRKEQKLQTVLETLLSDVNQNQRNVNETMSRSLANGIINVKEITEKLKISPESVFGTLGELIKVNDKYKTCAEVIGGNSLFHIVVDTEETATLIMNELYRMKGGRVTFIPLNRLSLDSDVKFPSNTTTQIQFTPLIKKIKYEPRFEKAVKHVFGKTIVVKDLGQGLKLAKKHKLNAITLDGDRADKRGVLTGGYLDQHKRTRLESLKNLNESRSQHKKILEELDFVRNELNDIDTKIDQVNGNIRKVSNDRESVLTNIEVYRTSLNTKKNEKLILEESLNAIILKLEKLNTNRTFAQEKLNTFENDLLQEFDSELSKEEKERLESLTKEISAAHNKLNITSDALEGITTTIDSLNAELESKLIPQENDLESKMSEVGDAFIFGLQDELKELQLEKESVEKQHENAVLELGTVQREIESLIAEETNNKKLLEKANNQQRLLLKKLDNFQKSVEKTMIKKTTLVTRREELQQRIREIGLLPEDALVNDFSDITSDQLLQRLNDMNTEISGLKNVNKRAFENFKKFNERRKDLAERASELDESKDSIQDLIVKLKQQKVNAVDSTFQKVSENFEAVFERLVPRGTAKLIIHRKNDNANDHDESIDVDMDAESNESQNGKDSEIMYTGVSISVSFNSKQNEQLHVEQLSGGQKTVCAIALILAIQMVDPASFYLFDEIDAALDKQYRTAVATLLKELSKNAQFICTTFRTDMLQVADKFFRVKYENKISTVIEVNREEAIGFIRGSNKFAEV
Consider B1, for which the binding result in assay [1] was “binds”.

B2: Smc3-K38I (cohesin ATPase mutant) (protein, UniProt P47037 1-1230)
chain: B1 chain with K38I
B2: in assay [1], the binding entry was “binds”.

B3: Scc3 (protein, UniProt P40541 1-1150)
chain: MTAVRRSTRIRTKSQVIEEDYDDEQNTSAQHVESDKITAKTQHEEEEEQDTGESEESSSEDDYEDQDDDDYVDTATAKRKSRKRKPKSASNTSSKRQKKKPTSAQKSAVSHAPAYHRSKKDQDQYLEIAKDFQPTELFDILSTSEDVSIEELLREWLETYSENRDKFLQEFINLLLNCCGSVARVEDHDVHSNESSNETIGEIQLLFQRQKLHEFYLLISKENKKRKNFKMGPLYQNFAEFMTKLLEVANDLQLLYVESDEDDTQIVTGNLVLDLLTWLSSFSVCKIRCFRYISTLTLYLFQDYLTQQAVNLEKNYLAKLSKQLSLEEKKKRPNNKTLEKLESTIAETQGSKVVIDSIIDNIVKLCFVHRYKDVSDLIRSESMLHLSIWIKNYPEYFLKVTFLKYFGWLLSDNSVSVRLQVTKILPHLIIQNHNSKSTDNSAIRQVFERFKTKILEVAIRDVNLDVRIHSIQVLTEASSLGYLDDSEILIISSLMFDEEFDPFKTSSFNKRSKFLSTVAKFLARVIKEKFDEFIKTHEDLPKEVDGLEVGPVVQVGIFIKILNDSLIYHLKDCAEVDSRTKIRMLTQAAEFLSPYISTHLKTICNLLISDTESNELIQKLQNSANNNSDDEDVDDEELDITPLFPIDRNSTILYLNVFHGLCAGANNPKIQTKDSVKEIVLPLFYDLLNAASIESADILCPLLESFITFSLDDWISIGYETELKKITDKTIKAFMDSTIGNSKVDMKYDIFAKFIHHIHHFEKKELQEKFLNQIATLKIHLKKFLQEKMDPNNSRDDYKDLTCSLYELYINKLTILGRDYPIEVDEELLQLFLNNFVSRIPIMFQDFDDSTAQEINFKMLVLLATWNLEKWREIIEKVRDYENSISKDLRSVWKPIAAIIGRLNTLVISLAATNETFENINSLFYLKWSACTSLMDIIVAIKIFELKLPADATTWRYSMSEQFPFYLHDNASKVLLKIFLYLESLFAKQVDVQLERVADEDANLNDLPETGFFENIETEFLLFTVKLKGLMKLNILDERFASRVALNKEKLGPLFKKIVDDTIMENPEPNKKNIQKAKSNQTQREKAPLQPNSERETDHANTENNDPDIPMTIDLEPIEESSQNNSELAPIEEHPTVVDAIDNSDEITQD
Consider B3, for which the binding entry in assay [1] is reported as “binds”.

(Values after PMC6881171, “A conserved ATP- and Scc2/4-dependent activity for cohesin in tethering DNA molecules” (Science Advances, 2019).)
